Data reported in US5994504.
Where cells or extracts were used, other partners may take part. For part of these data: The exact form of at least one protein or probe is not confirmed. For part of these data: No signal at the amounts used counts as a negative.

Chains of the proteins cited; added tags and fusions are not shown. A line that says so, or that is headed by a name, gives the form on record, which may keep a tag or linker.
VDR-RXRalpha heterodimer (Homo sapiens), one chain, as listed by the source, chain 1 of 2: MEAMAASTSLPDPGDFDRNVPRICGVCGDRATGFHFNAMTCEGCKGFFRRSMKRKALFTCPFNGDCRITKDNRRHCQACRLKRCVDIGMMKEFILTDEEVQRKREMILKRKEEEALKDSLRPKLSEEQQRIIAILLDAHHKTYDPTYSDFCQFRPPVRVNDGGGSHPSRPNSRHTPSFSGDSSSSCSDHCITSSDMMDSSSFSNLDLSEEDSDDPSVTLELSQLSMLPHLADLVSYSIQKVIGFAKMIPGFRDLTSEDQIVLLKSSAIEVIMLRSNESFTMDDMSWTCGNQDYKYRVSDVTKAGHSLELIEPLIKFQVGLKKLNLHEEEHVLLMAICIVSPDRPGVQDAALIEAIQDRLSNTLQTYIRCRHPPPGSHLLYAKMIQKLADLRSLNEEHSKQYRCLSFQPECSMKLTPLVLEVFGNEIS
VDR-RXRalpha heterodimer (Homo sapiens), one chain, as listed by the source, chain 2 of 2: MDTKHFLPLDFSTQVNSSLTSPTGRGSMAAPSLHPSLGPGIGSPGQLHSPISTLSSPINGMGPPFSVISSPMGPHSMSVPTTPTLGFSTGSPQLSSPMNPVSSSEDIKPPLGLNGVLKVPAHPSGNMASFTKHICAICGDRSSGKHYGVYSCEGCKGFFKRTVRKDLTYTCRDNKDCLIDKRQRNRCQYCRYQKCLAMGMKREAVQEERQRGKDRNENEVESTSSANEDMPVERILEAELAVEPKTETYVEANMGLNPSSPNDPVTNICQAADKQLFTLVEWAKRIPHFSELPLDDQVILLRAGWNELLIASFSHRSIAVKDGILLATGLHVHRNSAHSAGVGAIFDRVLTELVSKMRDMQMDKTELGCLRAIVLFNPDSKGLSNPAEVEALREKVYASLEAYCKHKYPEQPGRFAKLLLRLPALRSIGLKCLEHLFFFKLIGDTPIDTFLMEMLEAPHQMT

How the values were obtained:
Assay in all cases: EMSA
[1] = system: VDR-RXR heterodimer, endogenous (B95-8 nuclear extract); settings: protein in an extract, protein details: vitamin D-resistant B95-8 nuclear extract, label: 32P
[2] = system: VDR-RXR heterodimer, endogenous (MLA-144 nuclear extract); settings: protein in an extract, protein details: 1,25-(OH)2D3-treated OWP cell nuclear extract, label: 32P
[3] = system: VDR-RXRalpha heterodimer (Homo sapiens); settings: protein in a lysate after overexpression, protein details: yeast (S. cerevisiae) expressed extracts, label: 32P
[4] = results stated identical to opVDRE

Row | Sequence | binding result ([1]; no VDR-RXR band, with or without 100 nM 1,25-(OH)2D3, inhibitory factor present) | binding result ([2]; 1,25-(OH)2D3-treated cells) | binding result ([3]; complex inhibited by B95-8 nuclear extract) | binding result [1, 4] | binding result [2, 4] | binding result [3, 4]
1 | GGTTCACGAGGTTCA (double strand) [mouse osteopontin VDRE (opVDRE)] | no binding | binds | binds |  |  | 
2 | GGGTGAACGGGGGCA (double strand) [human osteocalcin VDRE (ocVDRE)] |  |  |  | no binding | binds | binds
